# According to patent publication US20160090556A1, “PRODUCTS COMPRISING MALODOR REDUCTION MATERIALS” (The Procter & Gamble Company, priority 2014, published 2016):
# Experiment: Melamine formaldehyde PMC leakage
# Conditions: not given
row,SMILES,Melamine formaldehyde PMC leakage (Comment Code J)
1,CC(C)=CCCC(C)CCCC(C)C=O (stereo not shown) [Material 757],J (Melamine formaldehyde PMC leakage less than or equal to 5%)
2,CC(=O)CCc1ccc2c(c1)OCO2 [Material 976],J (Melamine formaldehyde PMC leakage less than or equal to 5%)
3,CCCCCCCCCOC(C)=O [Material 763],J (Melamine formaldehyde PMC leakage less than or equal to 5%)
4,CC(=O)C=CC1C(C)=CCC(C)C1(C)C (stereo not shown) [Material 704],J (Melamine formaldehyde PMC leakage less than or equal to 5%)
5,CC1=CC2C(CC1)C(C)=CCC2C(C)C (stereo not shown) [Material 717],J (Melamine formaldehyde PMC leakage less than or equal to 5%)
6,C=CC(=C)CCC=C(C)CCC=C(C)C=O [Material 613],J (Melamine formaldehyde PMC leakage less than or equal to 5%)
7,CCOc1ccc2ccccc2c1 [Material 620],J (Melamine formaldehyde PMC leakage less than or equal to 5%)
8,CC(C)=CCCC(C)=C1CC=C(C)CC1 [Material 608],J (Melamine formaldehyde PMC leakage less than or equal to 5%)
9,CC(=O)OC(C)CC/C=C(\C)CCC=C(C)C (stereo not shown) [Material 890],J (Melamine formaldehyde PMC leakage less than or equal to 5%)
10,CC(C)c1cccc(C(C)CC=O)c1 (stereo not shown) [Material 914],J (Melamine formaldehyde PMC leakage less than or equal to 5%)
11,CCC(C)C(=O)OCCc1ccccc1 (stereo not shown) [Material 954],J (Melamine formaldehyde PMC leakage less than or equal to 5%)
12,CCCCCC(=Cc1ccccc1)CO [Material 721],J (Melamine formaldehyde PMC leakage less than or equal to 5%)
13,CC1CCC2C(C)(C)C3CC12CCC3(C)OC=O (stereo not shown) [Material 566],J (Melamine formaldehyde PMC leakage less than or equal to 5%)
14,CCC=CCCOC(=O)CC(C)C [Material 814],J (Melamine formaldehyde PMC leakage less than or equal to 5%)
15,CC1=CCCC2(C)OC2CCC(C)=CCC1 (racemic) [Material 568],J (Melamine formaldehyde PMC leakage less than or equal to 5%)
16,CC1=C2C(CC1)C(C)CCC1C2C1(C)C (stereo not shown) [Material 708],J (Melamine formaldehyde PMC leakage less than or equal to 5%)
17,CC(C)(C)c1ccc(CCC=O)cc1 [Material 601],J (Melamine formaldehyde PMC leakage less than or equal to 5%)
18,CCCCCCCC1CCCO1 (stereo not shown) [Material 852],J (Melamine formaldehyde PMC leakage less than or equal to 5%)
19,C=CCOC(=O)CCC1CCCCC1 [Material 746],J (Melamine formaldehyde PMC leakage less than or equal to 5%)
20,CCCCCCCCCCCCCCCCCC(=O)OCCCC [Material 594],J (Melamine formaldehyde PMC leakage less than or equal to 5%)
21,CC1=CC[C@@H]2[C@@]3(C)CCCC(C)(C)[C@@H]3CC[C@@]2(C)O1 [Material 1029],J (Melamine formaldehyde PMC leakage less than or equal to 5%)
22,CCCCCCC[C@@H]1CCC(=O)O1 [Material 886],J (Melamine formaldehyde PMC leakage less than or equal to 5%)

# Same assay, conditions: class code letter within Comment Code
row,SMILES,Melamine formaldehyde PMC leakage (Comment Code J)
1,CCCCCCCC(=O)OCCCCCC [Material 263],J (Melamine formaldehyde PMC leakage less than or equal to 5%)
2,CC(=CC#N)CCc1ccccc1 [Material 505],J (Melamine formaldehyde PMC leakage less than or equal to 5%)
3,CC(C)(O)CCCC1=CCC(C=O)CC1 (stereo not shown) [Material 143],J (Melamine formaldehyde PMC leakage less than or equal to 5%)
4,CC(C)=CCCC(C)=CCC1CCCC1=O (stereo not shown) [Material 307],J (Melamine formaldehyde PMC leakage less than or equal to 5%)
5,O=C1CCCCCCCCCCC(=O)OCCO1 [Material 485],J (Melamine formaldehyde PMC leakage less than or equal to 5%)
6,CCCCCC1C(=O)CCC1CC(=O)OC (stereo not shown) [Material 113],J (Melamine formaldehyde PMC leakage less than or equal to 5%)
7,c1ccc2c(c1)CC1COCOC21 (stereo not shown) [Material 247],J (Melamine formaldehyde PMC leakage less than or equal to 5%)
8,CCCCCCCC1CCC(=O)O1 (racemic) [Material 316],J (Melamine formaldehyde PMC leakage less than or equal to 5%)
9,CCCCCC(=O)OCc1ccco1 [Material 338],J (Melamine formaldehyde PMC leakage less than or equal to 5%)
10,CCCCCCCCCC(=O)OCC [Material 397],J (Melamine formaldehyde PMC leakage less than or equal to 5%)
11,CCCCCCCCCCCC=O [Material 178],J (Melamine formaldehyde PMC leakage less than or equal to 5%)
12,CCCCCCC1CCCC(=O)O1 (stereo not shown) [Material 459],J (Melamine formaldehyde PMC leakage less than or equal to 5%)
13,CCC(C)=CCCC(C)=CC#N [Material 158],J (Melamine formaldehyde PMC leakage less than or equal to 5%)
14,CC1/C=C/CCCCCCCCCCC(=O)C1 (stereo not shown) [Material 80],J (Melamine formaldehyde PMC leakage less than or equal to 5%)
15,CCCCCCCC(OC)OC [Material 32],J (Melamine formaldehyde PMC leakage less than or equal to 5%)
16,CC(CO)C1CCCCCCCCCCC1 (stereo not shown) [Material 252],J (Melamine formaldehyde PMC leakage less than or equal to 5%)
17,CC(C)=CCCC(C)=CCCC(C)=CCO [Material 369],J (Melamine formaldehyde PMC leakage less than or equal to 5%)
18,CCCCCCCCC(C)C#N (stereo not shown) [Material 342],J (Melamine formaldehyde PMC leakage less than or equal to 5%)
19,CC1C2CC(CC2C2CCC(O)CC2)C1(C)C (stereo not shown) [Material 230],J (Melamine formaldehyde PMC leakage less than or equal to 5%)
20,C1CCCCCCCCCCCCC1 [Material 479],J (Melamine formaldehyde PMC leakage less than or equal to 5%)
21,C=C1CCC(C(C)C)C2C=C(C)CCC12 (stereo not shown) [Material 322],J (Melamine formaldehyde PMC leakage less than or equal to 5%)
22,CC(=O)OC1CC2CC1C1CC=CC21 (stereo not shown) [Material 281],J (Melamine formaldehyde PMC leakage less than or equal to 5%)
23,COc1c2ccoc2c(OC)c2oc(=O)ccc12 [Material 199],J (Melamine formaldehyde PMC leakage less than or equal to 5%)
24,C=CC(C)(CCC=C(C)C)OC(=O)C(C)C (stereo not shown) [Material 149],J (Melamine formaldehyde PMC leakage less than or equal to 5%)
25,CCOC(C)OCCc1ccccc1 (stereo not shown) [Material 415],J (Melamine formaldehyde PMC leakage less than or equal to 5%)
26,CCOC(C)OC1CCCCCCCCCCC1 (stereo not shown) [Material 363],J (Melamine formaldehyde PMC leakage less than or equal to 5%)

# Same assay, conditions: code J of the Comment Code column, Table 1
row,SMILES,Comment Code: Melamine formaldehyde PMC leakage
1,C[C@H]1[C@@H]2C[C@H](C[C@@]13C=CC(=O)CC3)C2(C)C [Material 1143],J (Melamine formaldehyde PMC leakage less than or equal to 5%)
2,CC1=CC2=C(C(C)C)CC[C@@H](C)[C@H]2CC1 [Material 1147],J (Melamine formaldehyde PMC leakage less than or equal to 5%)

# Same assay, conditions: code letter J
row,SMILES,Comment Code: Melamine formaldehyde PMC leakage
1,C/C=C(\C)C(=O)OCC/C=C\CC [Material 536],J (Melamine formaldehyde PMC leakage less than or equal to 5%)
2,C[C@H]1[C@@H]2C[C@H](C[C@@]13C=CC(=O)CC3)C2(C)C [Material 1143],J (Melamine formaldehyde PMC leakage less than or equal to 5%)
3,CCOC1CCC(C(C)(C)CC)CC1 (stereo not shown) [Material 12],J (Melamine formaldehyde PMC leakage less than or equal to 5%)
4,CC(=O)OCCCCCCC(C)C [Material 204],J (Melamine formaldehyde PMC leakage less than or equal to 5%)
5,CCCCCCOC(=O)CCC [Material 270],J (Melamine formaldehyde PMC leakage less than or equal to 5%)
6,CC1C2CC(CC2C2CCC(O)CC2)C1(C)C (stereo not shown) [Material 230],J (Melamine formaldehyde PMC leakage less than or equal to 5%)
7,CC1CCC2C(C)(C)C3CC12CCC3(C)OC=O (stereo not shown) [Material 566],J (Melamine formaldehyde PMC leakage less than or equal to 5%)
8,CCCCCCOC(=O)C(C)CC (stereo not shown) [Material 273],J (Melamine formaldehyde PMC leakage less than or equal to 5%)
9,CC(C)=CCC/C(C)=C/COC(=O)c1ccccc1 [Material 310],J (Melamine formaldehyde PMC leakage less than or equal to 5%)
10,C=CC(C)(CCC=C(C)C)OC(C)=O (stereo not shown) [Material 154],J (Melamine formaldehyde PMC leakage less than or equal to 5%)
11,CC(=O)OC1CC2CC1C1CC=CC21 (stereo not shown) [Material 281],J (Melamine formaldehyde PMC leakage less than or equal to 5%)
12,COc1c2ccoc2c(OC)c2oc(=O)ccc12 [Material 199],J (Melamine formaldehyde PMC leakage less than or equal to 5%)
13,CC1=C2C(CC1)C(C)CCC1C2C1(C)C (stereo not shown) [Material 708],J (Melamine formaldehyde PMC leakage less than or equal to 5%)
14,CC1=CC[C@@H]2[C@@]3(C)CCCC(C)(C)[C@@H]3CC[C@@]2(C)O1 [Material 1029],J (Melamine formaldehyde PMC leakage less than or equal to 5%)
